Laboratory results published in article PMC9079946.

Protein sequences, listed by entry. Tags and fused reporters are not part of them. Residues count along the entry.
UniProt P02769, 25-607: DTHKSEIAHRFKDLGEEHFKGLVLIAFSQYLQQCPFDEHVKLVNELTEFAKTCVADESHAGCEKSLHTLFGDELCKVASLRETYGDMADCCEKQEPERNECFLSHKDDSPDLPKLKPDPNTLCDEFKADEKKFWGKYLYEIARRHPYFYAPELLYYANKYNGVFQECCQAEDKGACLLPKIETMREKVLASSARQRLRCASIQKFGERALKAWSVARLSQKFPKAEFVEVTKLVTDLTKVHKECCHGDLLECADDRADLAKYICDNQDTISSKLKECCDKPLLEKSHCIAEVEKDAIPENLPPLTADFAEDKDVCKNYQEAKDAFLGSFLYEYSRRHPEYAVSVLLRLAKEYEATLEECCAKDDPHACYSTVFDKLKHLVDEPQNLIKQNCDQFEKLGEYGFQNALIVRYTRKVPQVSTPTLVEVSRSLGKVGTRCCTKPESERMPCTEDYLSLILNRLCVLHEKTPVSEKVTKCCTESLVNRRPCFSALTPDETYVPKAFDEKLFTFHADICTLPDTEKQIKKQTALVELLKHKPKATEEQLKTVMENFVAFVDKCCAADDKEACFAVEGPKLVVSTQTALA

How the values were obtained:
BSA = BSA (UniProt P02769); experiment: strand a displacement with toehold-aided fluorescence amplification; settings: 100 ng/mL BSA, slight fluorescence change only; 20 mM Tris-HCl, 100 mM NaCl, 10 mM KCl, 10 mM MgCl2, pH 7.5, 37 °C, 30 min; commercial protein
CD63 = experiment: as above; settings: 100 ng/mL CD63, slight fluorescence change only; 20 mM Tris-HCl, 100 mM NaCl, 10 mM KCl, 10 mM MgCl2, pH 7.5, 37 °C, 30 min; commercial protein

Q: Which results are given for “CACTACAGAGGTTGCGTCTGTCCCACGTTGTCATGGGGGGTTGGCCTG / AGACGCAACCTCTGT [EpCAM aptamer / strand a duplex]”?
A: binding result (BSA): no binding; binding result (CD63): no binding

Negatives hold for the conditions tested. For some assays here: For at least one entry, the source does not settle the construct or the ends of the probe.
